Experimental data published in paper PMC9325753, “Chilling-induced phosphorylation of IPA1 by OsSAPK6 activates chilling tolerance responses in rice”.
No constants are given. Whether binding was seen depends on the method and setting. In cells and extracts the contact can be indirect. Binding can be weak; no strength is given. Tags and fused reporters may be left off the sequences shown.

Target: T1, OsSAPK6-CFP^N (rice (Oryza sativa L. subsp. japonica)) (UniProt Q6ZI44)
T1 sequence: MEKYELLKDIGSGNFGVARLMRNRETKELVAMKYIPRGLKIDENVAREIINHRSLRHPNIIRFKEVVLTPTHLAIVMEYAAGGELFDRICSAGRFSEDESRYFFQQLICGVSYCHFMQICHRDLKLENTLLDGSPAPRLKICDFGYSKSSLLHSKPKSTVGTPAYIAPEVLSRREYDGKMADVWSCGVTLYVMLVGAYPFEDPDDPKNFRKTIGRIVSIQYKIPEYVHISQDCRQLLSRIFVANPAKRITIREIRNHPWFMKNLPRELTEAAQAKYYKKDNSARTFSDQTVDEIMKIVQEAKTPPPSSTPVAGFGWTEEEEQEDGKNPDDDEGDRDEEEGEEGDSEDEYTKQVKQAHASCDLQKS
Test: split reporter; BiFC in rice leaf protoplasts; CFP^N and CFP^C fusions (puc-SCYNE, puc-SCYCE) co-expressed from 35S promoter, incubated in the dark overnight, confocal microscopy

| Substance | binding |
| --- | --- |
| OsSPL6-CFP^C (rice) | no binding |
| OsSPL3-CFP^C (rice) | no binding |
| OsSPL2-CFP^C (rice) | binds |
| OsSPL7-CFP^C (rice) | binds |
| OsSPL8-CFP^C (rice) | binds |
